Test results: publication PMC3937361
Results are given in words; binding and its absence hold for the method and conditions named. A result given as binding can be weak or reduced; the word gives no strength. For some of these results: Binding seen in cells or lysates may run through a third protein.

Key:
[1] = biological target: PhoN2 (apyrase) bait encoded by pGBKT7/phoN2 (S. flexneri) (UniProt Q6XW11); experiment: two-hybrid; yeast (S. cerevisiae AH109); bait pGBKT7/phoN2, prey cDNA library of S. flexneri M90T in pGADT7-Rec; selection on SD medium lacking leucine, tryptophan, histidine and adenine, 30°C, α-galactosidase assay
[2] = biological target: T1, OmpA encoded by plasmid pOmpA (S. flexneri); experiment: cross-linking; in vivo, 1% formaldehyde for 15 min at room temperature on S. flexneri HND115 or HND93 carrying the plasmids, PBS pH 6.8; samples heated at 37°C (cross-links kept) or 95°C (broken); blots with anti-HA and anti-OmpA
T1 sequence: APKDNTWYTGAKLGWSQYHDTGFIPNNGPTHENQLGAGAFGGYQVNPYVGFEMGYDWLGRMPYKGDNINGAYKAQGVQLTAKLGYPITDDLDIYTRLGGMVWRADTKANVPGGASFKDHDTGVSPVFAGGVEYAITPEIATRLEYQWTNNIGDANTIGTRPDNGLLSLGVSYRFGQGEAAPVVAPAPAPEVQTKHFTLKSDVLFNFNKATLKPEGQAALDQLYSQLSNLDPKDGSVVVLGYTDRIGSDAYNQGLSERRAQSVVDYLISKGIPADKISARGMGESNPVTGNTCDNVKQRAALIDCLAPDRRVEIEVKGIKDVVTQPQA

[3] = biological target: T2, outer membrane protein A (OmpA), endogenous in S. flexneri HND115 (S. flexneri (endogenous in HND115)); experiment: as above
T2 sequence: T1 sequence

Substance	binding [1]	further results
OmpA prey fragment 43-275 (from UniProt A0A2S4N3N0) (domain or fragment)	binds	–
OmpA prey fragment 51-273 (from UniProt A0A2S4N3N0) (domain or fragment)	binds	–
OmpA prey fragment 72-277 (from UniProt A0A2S4N3N0) (domain or fragment)	binds	–
OmpA prey fragment 189-276 (from UniProt A0A2S4N3N0) (domain or fragment)	binds	–
OmpA prey fragment 185-304 (from UniProt A0A2S4N3N0) (domain or fragment)	binds	–
PhoN2-HA encoded by pHND10 (S. flexneri)	–	binding [2]: binds
PhoN2-HA with the first proline of the 43PPPP46 motif changed to serine (pHND23_(SPPP)) (S. flexneri)	–	binding [3]: binds
OmpA prey fragment 188-299 (from UniProt A0A2S4N3N0) (domain or fragment)	binds	–
PhoN2-HA with the second proline of the 43PPPP46 motif changed to serine (pHND14_(PSPP)) (S. flexneri)	–	binding [3]: binds
OmpA prey fragment 186-284 (from UniProt A0A2S4N3N0) (domain or fragment)	binds	–
